Measurements reported in PubChem BioAssay AID1224830 (NIAID, 2016).
Purpose: 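Regulators of TLR4 signalling towards TNF-alpha in macrophage-like cells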 (primary screen). System: human THP-1 monocytic leukaemia cells, TNF dual-luciferase reporter clone, PMA-differentiated to macrophage-like cells. Knock-down reagent: siRNA pool against human genes, 50 nM. Timing: LPS for 4 h, given about 3 days after siRNA transfection. Conditions: bacterial LPS (TLR4 ligand), 10 ng/ml. Detection: 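TNF firefly reporter luminescence divided by renilla, normalised to the plate median, then turned into a robust z-score for each replicate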. Reading the numbers: TNF reporter robust z-score: higher = stronger TNF reporter response to LPS. Rule for the call: 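a well is active when its z-score exceeds 2.8 or falls below -1.5; control wells carry no call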.
Here is an unselected part of about 18,000 reagents. Of all reagents, about 2,900 (16%) are marked active. 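Calls are made per well; low scores hint the gene aids the LPS response, high scores that it dampens it.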 Repeated entries: four replicate wells of each siRNA pool. No sequences are given here.

{"gene":"ADGRA1 (adhesion G protein-coupled receptor A1)","PubChem SID":"SID315460356","TNF reporter robust z-score":-0.89,"Outcome":"inactive"}
{"gene":"ADGRA1 (adhesion G protein-coupled receptor A1)","PubChem SID":"SID315460356","TNF reporter robust z-score":-1.29,"Outcome":"inactive"}
{"gene":"ADGRA1 (adhesion G protein-coupled receptor A1)","PubChem SID":"SID315460356","TNF reporter robust z-score":-1.25,"Outcome":"inactive"}
{"gene":"ADGRA1 (adhesion G protein-coupled receptor A1)","PubChem SID":"SID315460356","TNF reporter robust z-score":-0.28,"Outcome":"inactive"}
{"gene":"SECISBP2 (SECIS binding protein 2)","PubChem SID":"SID315459179","TNF reporter robust z-score":-0.99,"Outcome":"inactive"}
{"gene":"SECISBP2 (SECIS binding protein 2)","PubChem SID":"SID315459179","TNF reporter robust z-score":-1.09,"Outcome":"inactive"}
{"gene":"SECISBP2 (SECIS binding protein 2)","PubChem SID":"SID315459179","TNF reporter robust z-score":-1.27,"Outcome":"inactive"}
{"gene":"SECISBP2 (SECIS binding protein 2)","PubChem SID":"SID315459179","TNF reporter robust z-score":-1.12,"Outcome":"inactive"}
{"gene":"UCP3 (uncoupling protein 3)","PubChem SID":"SID315452060","TNF reporter robust z-score":-1.02,"Outcome":"inactive"}
{"gene":"UCP3 (uncoupling protein 3)","PubChem SID":"SID315452060","TNF reporter robust z-score":-0.53,"Outcome":"inactive"}
{"gene":"UCP3 (uncoupling protein 3)","PubChem SID":"SID315452060","TNF reporter robust z-score":-0.48,"Outcome":"inactive"}
{"gene":"UCP3 (uncoupling protein 3)","PubChem SID":"SID315452060","TNF reporter robust z-score":-0.83,"Outcome":"inactive"}
{"gene":"ZNF470 (zinc finger protein 470)","PubChem SID":"SID315464497","TNF reporter robust z-score":1.52,"Outcome":"inactive"}
{"gene":"ZNF470 (zinc finger protein 470)","PubChem SID":"SID315464497","TNF reporter robust z-score":3.17,"Outcome":"active"}
{"gene":"ZNF470 (zinc finger protein 470)","PubChem SID":"SID315464497","TNF reporter robust z-score":3.37,"Outcome":"active"}
{"gene":"ZNF470 (zinc finger protein 470)","PubChem SID":"SID315464497","TNF reporter robust z-score":1.44,"Outcome":"inactive"}
{"gene":"RGL3 (ral guanine nucleotide dissociation stimulator like 3)","PubChem SID":"SID315458288","TNF reporter robust z-score":-0.59,"Outcome":"inactive"}
{"gene":"RGL3 (ral guanine nucleotide dissociation stimulator like 3)","PubChem SID":"SID315458288","TNF reporter robust z-score":0.1,"Outcome":"inactive"}
{"gene":"RGL3 (ral guanine nucleotide dissociation stimulator like 3)","PubChem SID":"SID315458288","TNF reporter robust z-score":-0.44,"Outcome":"inactive"}
{"gene":"RGL3 (ral guanine nucleotide dissociation stimulator like 3)","PubChem SID":"SID315458288","TNF reporter robust z-score":-0.04,"Outcome":"inactive"}
{"gene":"ANKZF1 (ankyrin repeat and zinc finger peptidyl tRNA hydrolase 1)","PubChem SID":"SID315457436","TNF reporter robust z-score":1.22,"Outcome":"inactive"}
{"gene":"ANKZF1 (ankyrin repeat and zinc finger peptidyl tRNA hydrolase 1)","PubChem SID":"SID315457436","TNF reporter robust z-score":1.09,"Outcome":"inactive"}
{"gene":"ANKZF1 (ankyrin repeat and zinc finger peptidyl tRNA hydrolase 1)","PubChem SID":"SID315457436","TNF reporter robust z-score":1.02,"Outcome":"inactive"}
{"gene":"ANKZF1 (ankyrin repeat and zinc finger peptidyl tRNA hydrolase 1)","PubChem SID":"SID315457436","TNF reporter robust z-score":-0.55,"Outcome":"inactive"}
{"gene":"OR6B2 (olfactory receptor family 6 subfamily B member 2)","PubChem SID":"SID315464535","Outcome":"inactive"}
{"gene":"OR6B2 (olfactory receptor family 6 subfamily B member 2)","PubChem SID":"SID315464535","TNF reporter robust z-score":-0.65,"Outcome":"inactive"}
{"gene":"OR6B2 (olfactory receptor family 6 subfamily B member 2)","PubChem SID":"SID315464535","TNF reporter robust z-score":-1.12,"Outcome":"inactive"}
{"gene":"OR6B2 (olfactory receptor family 6 subfamily B member 2)","PubChem SID":"SID315464535","TNF reporter robust z-score":-1.26,"Outcome":"inactive"}
{"gene":"AJM1 (apical junction component 1 homolog)","PubChem SID":"SID315464578","TNF reporter robust z-score":-0.9,"Outcome":"inactive"}
{"gene":"AJM1 (apical junction component 1 homolog)","PubChem SID":"SID315464578","TNF reporter robust z-score":-0.8,"Outcome":"inactive"}
{"gene":"AJM1 (apical junction component 1 homolog)","PubChem SID":"SID315464578","TNF reporter robust z-score":-0.07,"Outcome":"inactive"}
{"gene":"AJM1 (apical junction component 1 homolog)","PubChem SID":"SID315464578","TNF reporter robust z-score":-0.65,"Outcome":"inactive"}
{"gene":"EIF4EBP2","PubChem SID":"SID315448477","TNF reporter robust z-score":-0.41,"Outcome":"inactive"}
{"gene":"EIF4EBP2","PubChem SID":"SID315448477","TNF reporter robust z-score":-0.6,"Outcome":"inactive"}
{"gene":"EIF4EBP2","PubChem SID":"SID315448477","TNF reporter robust z-score":-0.84,"Outcome":"inactive"}
{"gene":"EIF4EBP2","PubChem SID":"SID315448477","TNF reporter robust z-score":0.33,"Outcome":"inactive"}
{"gene":"SP3 (Sp3 transcription factor)","PubChem SID":"SID315451591","TNF reporter robust z-score":0.32,"Outcome":"inactive"}
{"gene":"SP3 (Sp3 transcription factor)","PubChem SID":"SID315451591","TNF reporter robust z-score":0.75,"Outcome":"inactive"}
{"gene":"SP3 (Sp3 transcription factor)","PubChem SID":"SID315451591","TNF reporter robust z-score":-0.07,"Outcome":"inactive"}
{"gene":"SP3 (Sp3 transcription factor)","PubChem SID":"SID315451591","TNF reporter robust z-score":0.12,"Outcome":"inactive"}
{"gene":"WDR35 (WD repeat domain 35)","PubChem SID":"SID315458451","TNF reporter robust z-score":-0.14,"Outcome":"inactive"}
{"gene":"WDR35 (WD repeat domain 35)","PubChem SID":"SID315458451","TNF reporter robust z-score":-0.31,"Outcome":"inactive"}
{"gene":"WDR35 (WD repeat domain 35)","PubChem SID":"SID315458451","TNF reporter robust z-score":-1.11,"Outcome":"inactive"}
{"gene":"WDR35 (WD repeat domain 35)","PubChem SID":"SID315458451","TNF reporter robust z-score":-0.84,"Outcome":"inactive"}
{"gene":"CCDC61 (coiled-coil domain containing 61)","PubChem SID":"SID315465207","TNF reporter robust z-score":-0.63,"Outcome":"inactive"}
{"gene":"CCDC61 (coiled-coil domain containing 61)","PubChem SID":"SID315465207","TNF reporter robust z-score":0.83,"Outcome":"inactive"}
{"gene":"CCDC61 (coiled-coil domain containing 61)","PubChem SID":"SID315465207","TNF reporter robust z-score":-0.05,"Outcome":"inactive"}
{"gene":"CCDC61 (coiled-coil domain containing 61)","PubChem SID":"SID315465207","TNF reporter robust z-score":-0.4,"Outcome":"inactive"}
{"gene":"MYCT1 (MYC target 1)","PubChem SID":"SID315459683","TNF reporter robust z-score":-1.44,"Outcome":"inactive"}
{"gene":"MYCT1 (MYC target 1)","PubChem SID":"SID315459683","TNF reporter robust z-score":-1.29,"Outcome":"inactive"}
{"gene":"MYCT1 (MYC target 1)","PubChem SID":"SID315459683","TNF reporter robust z-score":-1.22,"Outcome":"inactive"}
{"gene":"MYCT1 (MYC target 1)","PubChem SID":"SID315459683","TNF reporter robust z-score":-1.3,"Outcome":"inactive"}
{"gene":"CLK2 (CDC like kinase 2)","PubChem SID":"SID315447968","TNF reporter robust z-score":-1.59,"Outcome":"active"}
{"gene":"CLK2 (CDC like kinase 2)","PubChem SID":"SID315447968","TNF reporter robust z-score":-0.64,"Outcome":"inactive"}
{"gene":"CLK2 (CDC like kinase 2)","PubChem SID":"SID315447968","TNF reporter robust z-score":-0.72,"Outcome":"inactive"}
{"gene":"CLK2 (CDC like kinase 2)","PubChem SID":"SID315447968","TNF reporter robust z-score":-0.47,"Outcome":"inactive"}
{"gene":"TEX261 (testis expressed 261)","PubChem SID":"SID315461189","TNF reporter robust z-score":-0.23,"Outcome":"inactive"}
{"gene":"TEX261 (testis expressed 261)","PubChem SID":"SID315461189","TNF reporter robust z-score":0.57,"Outcome":"inactive"}
{"gene":"TEX261 (testis expressed 261)","PubChem SID":"SID315461189","TNF reporter robust z-score":1.61,"Outcome":"inactive"}
{"gene":"TEX261 (testis expressed 261)","PubChem SID":"SID315461189","TNF reporter robust z-score":-0.45,"Outcome":"inactive"}
